Measurements reported in US6696546.
No constants are given. Whether binding was seen depends on the method and setting. For some of these results: In cells and extracts the contact can be indirect. Some binding calls cover weakened binding; strength is not graded here.

Amino acid sequences for entries named in this document (tags omitted). A change or cut given only in a name is not applied to a line headed by its entry. Chains listed by the source or under a name are the forms on record and can include a tag or linker.
UniProt P14635: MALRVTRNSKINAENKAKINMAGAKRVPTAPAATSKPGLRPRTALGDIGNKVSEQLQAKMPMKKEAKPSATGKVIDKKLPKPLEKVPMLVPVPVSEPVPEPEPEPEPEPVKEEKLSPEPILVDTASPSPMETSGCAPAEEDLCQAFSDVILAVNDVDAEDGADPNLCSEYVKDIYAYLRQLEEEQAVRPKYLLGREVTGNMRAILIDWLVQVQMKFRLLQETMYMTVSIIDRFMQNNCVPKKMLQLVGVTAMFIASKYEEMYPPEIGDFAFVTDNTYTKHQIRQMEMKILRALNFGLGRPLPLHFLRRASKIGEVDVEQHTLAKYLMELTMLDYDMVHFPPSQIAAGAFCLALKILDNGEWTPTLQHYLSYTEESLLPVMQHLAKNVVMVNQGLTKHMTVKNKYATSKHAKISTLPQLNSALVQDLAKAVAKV
bovine PAP I (poly(A) polymerase I), full-length (P25500, form named): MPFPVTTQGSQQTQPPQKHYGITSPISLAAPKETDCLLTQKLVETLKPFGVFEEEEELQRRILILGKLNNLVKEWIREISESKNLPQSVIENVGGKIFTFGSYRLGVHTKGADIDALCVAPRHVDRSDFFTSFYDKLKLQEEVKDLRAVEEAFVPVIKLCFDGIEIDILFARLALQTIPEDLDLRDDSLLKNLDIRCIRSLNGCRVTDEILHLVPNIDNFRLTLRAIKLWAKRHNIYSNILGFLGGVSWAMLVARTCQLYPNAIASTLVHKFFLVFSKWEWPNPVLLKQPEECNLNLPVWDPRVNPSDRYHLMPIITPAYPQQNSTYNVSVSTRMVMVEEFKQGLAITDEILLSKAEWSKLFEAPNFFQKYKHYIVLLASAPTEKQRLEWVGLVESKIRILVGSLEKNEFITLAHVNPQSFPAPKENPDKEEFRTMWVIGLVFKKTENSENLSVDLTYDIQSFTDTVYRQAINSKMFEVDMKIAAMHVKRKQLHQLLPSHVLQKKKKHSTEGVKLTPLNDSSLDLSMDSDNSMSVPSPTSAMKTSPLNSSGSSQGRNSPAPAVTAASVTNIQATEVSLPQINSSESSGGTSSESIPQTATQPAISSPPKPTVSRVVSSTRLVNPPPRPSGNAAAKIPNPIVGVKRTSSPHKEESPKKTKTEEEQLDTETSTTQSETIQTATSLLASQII

Experiments:
[1] = biological target: GST-Cyclin B1 fusion protein (UniProt P14635); experiment: GST-cyclin B1 (1 µg) pull-down of purified his-PAP I (100 ng) with the PAP CRM 8-mer, Western blot with anti-PAP polyclonal antibody
[2] = biological target: GST-Cyclin B1 fusion protein (UniProt P14635); experiment: GST-cyclin B1 pull-down of purified bacterial PAP with peptides, Western blot
[3] = biological target: GST-Cyclin B1 fusion protein (UniProt P14635); experiment: GST pull-down of in vitro translated 35S PAPs
human cyclin B1 (human) [4] = biological target: human cyclin B1 (human) (UniProt P14635); experiment: co-immunoprecipitation from sf9 cell extracts, Western blot
human cyclin B1 (human) [5] = biological target: human cyclin B1 (human) (UniProt P14635); experiment: co-immunoprecipitation with anti-PAP polyclonal antibody from co-infected sf9 cell extracts, Western blot with anti-cyclin B1 antibody
[6] = biological target: GST-Cyclin A fusion protein (UniProt P20248); experiment: GST pull-down of in vitro translated 35S PAP
[7] = biological target: GST-Cyclin B1 fusion protein (UniProt P14635); experiment: GST-cyclin B1 pull-down of 35S PAP with the PAP CRM 8-mer
[8] = biological target: GST-Cyclin A fusion protein (UniProt P20248); experiment: GST pull-down of in vitro translated 35S PAP I, autoradiography
[9] = biological target: GST-Cyclin B1 fusion protein (UniProt P14635); experiment: as above
[10] = biological target: GST-Cyclin B1 fusion protein (UniProt P14635); experiment: GST-cyclin B1 pull-down of in vitro translated 35S PAPs, autoradiography

Measured: binding

bacterial produced, purified his-PAP I (from UniProt P25500 1-689) (enzyme)
binds: [1] | [2]

bovine PAP I (poly(A) polymerase I), full-length (from UniProt P25500 1-689) (enzyme)
not listed: [1] | [2]
binds: all other assays above
